The subject of this series is indole oxidase. Nature of the series: Cell-free oxygen uptake in WW2 indole-induced cell extract. The format is biochemical, Pseudomonas putida. As to conditions: colour of the reaction, substrate 0.3 mM, 1 mM NADH.

As to `Oc1cccc2[nH]ccc12` [4-OH-Indole], the Color result is “brown”.

The values above are taken from patent US6642031B2, “Microorganisms with ability to degrade indole and enzymes therefrom” (Genencor International, Inc., priority 1995, dated 2003).
